Measurements: the supplement of paper PMC11438910
The list shows a part of the results. Most of these values are background signal.

Columns and labels:
Assay in all cases: fluorescence intensity of antibody binding to polysaccharide-coupled beads; higher = stronger binding
[1] = target: pneumococcal polysaccharide Pn19B
[2] = target: pneumococcal polysaccharide Pn19C
[3] = target: pneumococcal polysaccharide Pn19F
[4] = target: pneumococcal polysaccharide Pn2
[5] = target: pneumococcal polysaccharide Pn20A
[6] = target: pneumococcal polysaccharide Pn20B
[7] = target: pneumococcal polysaccharide Pn21
[8] = target: pneumococcal polysaccharide Pn22A
[9] = target: pneumococcal polysaccharide Pn22F
[10] = target: pneumococcal polysaccharide Pn23A
[11] = target: pneumococcal polysaccharide Pn23B
[12] = target: pneumococcal polysaccharide Pn23F
[13] = antibody concentration 0.1 ng/mL
[14] = antibody concentration 0.534724 ng/mL
[15] = antibody concentration 2.8593 ng/mL
[16] = antibody concentration 15.2894 ng/mL
[17] = antibody concentration 81.7561 ng/mL
[18] = antibody concentration 437.17 ng/mL
[19] = antibody concentration 2337.65 ng/mL
[20] = antibody concentration 12500 ng/mL

B1: 4-173.4 (protein)
chain 1: QLQLQESGPGLVKPSETLSLTCAVSGGSISSHYWSWIRQPPGKGLEWIGRFSAGGGSTDYNPSLKSRVTISTDTSKNQFTLNLNSVTAADTAVYYCTRGSYTSDYWGQGVLVTVSS
chain 2: QAALTQSPSVSGSPGQSVTISCTGTSSDIGGYIRVSWYQQHPGKAPKLMIYEVSKRPSGVSDRFSGSKSGNTASLTISGLQAEDEADYYCFSYARGDTVLLGGGTRLTVL
Q: Which results are given for B1?
A: fluorescence intensity [1, 13]: 29.5 MFI; fluorescence intensity [1, 14]: 29 MFI; fluorescence intensity [1, 15]: 30 MFI; fluorescence intensity [1, 16]: 26.2 MFI; fluorescence intensity [1, 17]: 29 MFI; fluorescence intensity [1, 18]: 30.2 MFI; fluorescence intensity [1, 19]: 31.5 MFI; fluorescence intensity [1, 20]: 82 MFI; fluorescence intensity [2, 13]: 26.2 MFI; fluorescence intensity [2, 14]: 26.5 MFI; fluorescence intensity [2, 15]: 26.2 MFI; fluorescence intensity [2, 16]: 27.2 MFI; fluorescence intensity [2, 17]: 25.2 MFI; fluorescence intensity [2, 18]: 26 MFI; fluorescence intensity [2, 19]: 28 MFI; fluorescence intensity [2, 20]: 55.5 MFI; fluorescence intensity [3, 13]: 26.5 MFI; fluorescence intensity [3, 14]: 26.2 MFI; fluorescence intensity [3, 15]: 25.5 MFI; fluorescence intensity [3, 16]: 26.5 MFI; fluorescence intensity [3, 17]: 23.8 MFI; fluorescence intensity [3, 18]: 29.5 MFI; fluorescence intensity [3, 19]: 31.5 MFI; fluorescence intensity [3, 20]: 44 MFI; fluorescence intensity [4, 13]: 18.8 MFI; fluorescence intensity [4, 14]: 19.8 MFI; fluorescence intensity [4, 15]: 19 MFI; fluorescence intensity [4, 16]: 20 MFI; fluorescence intensity [4, 17]: 21 MFI; fluorescence intensity [4, 18]: 19.8 MFI; fluorescence intensity [4, 19]: 22.5 MFI; fluorescence intensity [4, 20]: 28 MFI; fluorescence intensity [5, 13]: 23.5 MFI; fluorescence intensity [5, 14]: 22.5 MFI; fluorescence intensity [5, 15]: 23 MFI; fluorescence intensity [5, 16]: 22.5 MFI; fluorescence intensity [5, 17]: 22.2 MFI; fluorescence intensity [5, 18]: 22 MFI; fluorescence intensity [5, 19]: 25.5 MFI; fluorescence intensity [5, 20]: 57.2 MFI; fluorescence intensity [6, 13]: 23.5 MFI; fluorescence intensity [6, 14]: 24 MFI; fluorescence intensity [6, 15]: 24 MFI; fluorescence intensity [6, 16]: 24.5 MFI; fluorescence intensity [6, 17]: 24 MFI; fluorescence intensity [6, 18]: 23.5 MFI; fluorescence intensity [6, 19]: 23.5 MFI; fluorescence intensity [6, 20]: 30 MFI; fluorescence intensity [7, 13]: 19.5 MFI; fluorescence intensity [7, 14]: 19 MFI; fluorescence intensity [7, 15]: 19 MFI; fluorescence intensity [7, 16]: 18.8 MFI; fluorescence intensity [7, 17]: 20.8 MFI; fluorescence intensity [7, 18]: 19 MFI; fluorescence intensity [7, 19]: 22 MFI; fluorescence intensity [7, 20]: 23.8 MFI; fluorescence intensity [8, 13]: 20 MFI; fluorescence intensity [8, 14]: 22 MFI; fluorescence intensity [8, 15]: 19.8 MFI; fluorescence intensity [8, 16]: 20.5 MFI; fluorescence intensity [8, 17]: 21 MFI; fluorescence intensity [8, 18]: 21.5 MFI; fluorescence intensity [8, 19]: 22.5 MFI; fluorescence intensity [8, 20]: 34 MFI; fluorescence intensity [9, 13]: 31.5 MFI; fluorescence intensity [9, 14]: 29 MFI; fluorescence intensity [9, 15]: 35 MFI; fluorescence intensity [9, 16]: 31 MFI; fluorescence intensity [9, 17]: 32.8 MFI; fluorescence intensity [9, 18]: 31.5 MFI; fluorescence intensity [9, 19]: 33.5 MFI; fluorescence intensity [9, 20]: 36.5 MFI; fluorescence intensity [10, 13]: 25.8 MFI; fluorescence intensity [10, 14]: 27.8 MFI; fluorescence intensity [10, 15]: 23 MFI; fluorescence intensity [10, 16]: 22 MFI; fluorescence intensity [10, 17]: 22.5 MFI; fluorescence intensity [10, 18]: 27.5 MFI; fluorescence intensity [10, 19]: 35.8 MFI; fluorescence intensity [10, 20]: 56 MFI; fluorescence intensity [11, 13]: 29.8 MFI; fluorescence intensity [11, 14]: 30.5 MFI; fluorescence intensity [11, 15]: 31 MFI; fluorescence intensity [11, 16]: 28.8 MFI; fluorescence intensity [11, 17]: 28.2 MFI; fluorescence intensity [11, 18]: 31 MFI; fluorescence intensity [11, 19]: 32 MFI; fluorescence intensity [11, 20]: 35.2 MFI; fluorescence intensity [12, 13]: 18 MFI; fluorescence intensity [12, 14]: 18.5 MFI
